From ChEMBL document CHEMBL3988442, “University of Dundee, Small-Polar-MMV Screening Library” (2021).

By UniProt entry, the sequences of proteins in these tests, tags left out. Residues count along the entry.
UniProt P9WPC5, whole entry: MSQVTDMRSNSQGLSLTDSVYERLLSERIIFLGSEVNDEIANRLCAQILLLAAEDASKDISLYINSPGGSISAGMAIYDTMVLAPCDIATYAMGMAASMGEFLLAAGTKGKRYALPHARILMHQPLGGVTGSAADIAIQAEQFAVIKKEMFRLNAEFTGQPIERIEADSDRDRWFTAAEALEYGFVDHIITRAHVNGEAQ
UniProt P9WPC3, whole entry partner: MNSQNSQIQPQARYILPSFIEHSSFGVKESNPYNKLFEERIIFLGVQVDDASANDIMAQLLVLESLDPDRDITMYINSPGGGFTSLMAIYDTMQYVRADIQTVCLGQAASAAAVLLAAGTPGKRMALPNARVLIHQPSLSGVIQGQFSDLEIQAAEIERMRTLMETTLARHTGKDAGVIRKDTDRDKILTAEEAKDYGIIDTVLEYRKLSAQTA
UniProt Q4DA54, 1-478: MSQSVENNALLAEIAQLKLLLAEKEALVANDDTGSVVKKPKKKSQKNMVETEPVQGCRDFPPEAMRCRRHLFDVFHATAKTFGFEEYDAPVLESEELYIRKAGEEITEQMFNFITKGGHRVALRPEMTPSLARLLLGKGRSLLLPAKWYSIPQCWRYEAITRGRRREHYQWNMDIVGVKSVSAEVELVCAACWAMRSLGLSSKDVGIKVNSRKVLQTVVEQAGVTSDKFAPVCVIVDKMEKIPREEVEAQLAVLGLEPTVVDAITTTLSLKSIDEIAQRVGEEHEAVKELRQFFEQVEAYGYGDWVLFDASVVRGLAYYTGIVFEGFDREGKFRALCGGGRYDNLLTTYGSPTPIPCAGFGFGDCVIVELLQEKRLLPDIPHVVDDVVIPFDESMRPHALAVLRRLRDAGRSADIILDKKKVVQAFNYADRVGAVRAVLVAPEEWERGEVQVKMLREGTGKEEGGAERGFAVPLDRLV
UniProt Q8IDJ8, 1-583: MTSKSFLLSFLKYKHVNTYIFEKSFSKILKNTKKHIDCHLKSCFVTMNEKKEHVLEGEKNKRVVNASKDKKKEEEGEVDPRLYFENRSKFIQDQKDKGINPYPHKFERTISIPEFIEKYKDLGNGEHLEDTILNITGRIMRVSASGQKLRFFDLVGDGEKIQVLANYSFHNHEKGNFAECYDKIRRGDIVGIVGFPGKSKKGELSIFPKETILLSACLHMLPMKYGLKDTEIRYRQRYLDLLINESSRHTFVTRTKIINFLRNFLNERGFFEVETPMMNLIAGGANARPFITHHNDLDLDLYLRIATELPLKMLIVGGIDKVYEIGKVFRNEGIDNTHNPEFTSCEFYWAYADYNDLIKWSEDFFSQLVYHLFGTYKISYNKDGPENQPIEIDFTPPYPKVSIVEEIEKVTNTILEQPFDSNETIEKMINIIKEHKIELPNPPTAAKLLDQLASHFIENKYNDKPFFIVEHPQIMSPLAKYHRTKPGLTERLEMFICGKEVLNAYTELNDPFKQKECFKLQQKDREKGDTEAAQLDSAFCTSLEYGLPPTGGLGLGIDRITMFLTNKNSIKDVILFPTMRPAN
UniProt P9WNZ1, whole entry: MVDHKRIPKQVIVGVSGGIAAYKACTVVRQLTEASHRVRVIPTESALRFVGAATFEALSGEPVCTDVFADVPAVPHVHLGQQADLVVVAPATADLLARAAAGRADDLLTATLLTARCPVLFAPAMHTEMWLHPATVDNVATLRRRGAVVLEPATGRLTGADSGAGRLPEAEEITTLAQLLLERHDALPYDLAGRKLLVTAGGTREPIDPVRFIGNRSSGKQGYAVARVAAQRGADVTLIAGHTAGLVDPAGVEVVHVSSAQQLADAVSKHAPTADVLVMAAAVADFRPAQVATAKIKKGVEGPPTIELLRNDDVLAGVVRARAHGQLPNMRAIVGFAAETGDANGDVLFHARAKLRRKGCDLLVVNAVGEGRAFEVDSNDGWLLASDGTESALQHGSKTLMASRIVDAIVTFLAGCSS
UniProt I6X8D2, whole entry: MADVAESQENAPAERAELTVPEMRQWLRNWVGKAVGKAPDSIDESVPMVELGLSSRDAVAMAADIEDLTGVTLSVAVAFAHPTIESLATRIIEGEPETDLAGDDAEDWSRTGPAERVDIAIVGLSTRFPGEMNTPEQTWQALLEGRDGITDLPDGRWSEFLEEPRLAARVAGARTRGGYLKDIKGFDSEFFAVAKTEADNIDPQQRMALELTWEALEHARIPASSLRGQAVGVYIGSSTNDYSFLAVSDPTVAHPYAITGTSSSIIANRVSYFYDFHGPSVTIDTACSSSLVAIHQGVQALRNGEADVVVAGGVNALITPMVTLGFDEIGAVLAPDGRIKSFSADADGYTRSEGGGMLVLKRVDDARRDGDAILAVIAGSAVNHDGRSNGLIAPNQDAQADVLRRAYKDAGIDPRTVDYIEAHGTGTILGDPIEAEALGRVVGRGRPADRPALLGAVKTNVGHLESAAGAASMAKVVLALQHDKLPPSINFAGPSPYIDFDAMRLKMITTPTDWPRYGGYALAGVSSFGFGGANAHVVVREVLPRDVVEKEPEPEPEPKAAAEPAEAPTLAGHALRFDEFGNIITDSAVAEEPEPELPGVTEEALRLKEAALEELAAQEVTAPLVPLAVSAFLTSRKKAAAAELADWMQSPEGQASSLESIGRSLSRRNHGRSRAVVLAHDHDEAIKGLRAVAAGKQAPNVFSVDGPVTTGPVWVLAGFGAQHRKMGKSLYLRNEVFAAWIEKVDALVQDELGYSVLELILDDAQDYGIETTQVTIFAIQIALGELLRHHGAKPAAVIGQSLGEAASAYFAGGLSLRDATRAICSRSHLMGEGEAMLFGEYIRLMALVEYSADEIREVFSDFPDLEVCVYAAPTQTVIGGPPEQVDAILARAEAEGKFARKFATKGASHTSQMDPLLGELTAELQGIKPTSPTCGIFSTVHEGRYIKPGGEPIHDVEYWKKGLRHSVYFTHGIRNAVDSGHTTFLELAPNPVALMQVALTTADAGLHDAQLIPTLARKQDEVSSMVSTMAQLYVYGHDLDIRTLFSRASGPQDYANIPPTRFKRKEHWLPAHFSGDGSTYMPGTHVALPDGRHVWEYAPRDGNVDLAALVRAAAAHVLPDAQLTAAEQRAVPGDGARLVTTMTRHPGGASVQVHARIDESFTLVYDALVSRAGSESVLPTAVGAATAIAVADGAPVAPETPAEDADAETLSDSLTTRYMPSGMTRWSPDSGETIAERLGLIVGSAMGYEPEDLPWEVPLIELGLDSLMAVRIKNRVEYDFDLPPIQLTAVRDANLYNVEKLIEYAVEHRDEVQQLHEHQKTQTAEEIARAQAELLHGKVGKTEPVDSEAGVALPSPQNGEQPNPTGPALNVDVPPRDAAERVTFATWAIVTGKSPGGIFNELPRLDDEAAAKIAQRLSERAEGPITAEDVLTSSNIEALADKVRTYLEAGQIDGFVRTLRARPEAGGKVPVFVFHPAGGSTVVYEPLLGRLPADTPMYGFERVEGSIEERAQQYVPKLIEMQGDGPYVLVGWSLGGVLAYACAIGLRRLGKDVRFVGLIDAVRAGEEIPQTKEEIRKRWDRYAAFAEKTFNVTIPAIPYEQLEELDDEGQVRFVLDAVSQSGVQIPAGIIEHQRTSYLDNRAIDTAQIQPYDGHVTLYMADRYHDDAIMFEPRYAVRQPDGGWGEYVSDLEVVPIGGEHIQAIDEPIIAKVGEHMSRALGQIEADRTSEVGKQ

Each number is a percent effect as filed. The record does not define 0% and 100%; most values in the screen are far below 50% and negative numbers occur (in some assays of this library far below -100). Compounds were drawn at random from those tested, without regard to their results. Two or more numbers in one place are separate tests of the same structure; such repeats can differ widely.

A: 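Protease assay of ClpP1P2, read by the AMC dye that it sets free. Target: ClpP1P2, Mycobacterium tuberculosis (UniProt P9WPC5 and UniProt P9WPC3). Concentration: 50 µM. Higher reads as stronger inhibition, judged from the few compounds that gave an IC50. Most other retested compounds had strongly negative values. About 69,000 compounds were tested under these conditions; 0.015% (about 10) showed 50% or more at least once.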
B: 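Histidine-tRNA ligase, Trypanosoma cruzi CL Brener (UniProt Q4DA54). Enzyme assay of histidyl-tRNA synthetase; the read-out is not stated. Concentration: 30 µM. Direction is inferred from retests: higher values go with stronger inhibition. Of about 69,000 compounds tested this way, about 31 (0.045%) reached 50% or more in at least one test.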
C: 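Lysine-tRNA ligase, Plasmodium falciparum 3D7 (UniProt Q8IDJ8). Enzyme assay of the cytosolic lysyl-tRNA synthetase in 384-well plates, read by luminescence. Tested at 30 µM. Higher reads as stronger inhibition, judged from the few compounds that gave an IC50. Size under these conditions: about 69,000 compounds, about 49 of them at 50% or above in at least one test.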
D: 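Coenzyme A biosynthesis protein CoaBC, Mycobacterium tuberculosis (UniProt P9WNZ1). Enzyme assay of CoaBC with a phosphate dye (Biomol Green) read at 650 nm. Tested at 30 µM. Higher reads as stronger inhibition, judged from the few compounds that gave an IC50. Most strong results did not repeat in a second test. Of about 67,000 compounds tested this way, about 40 (0.06%) reached 50% or more in at least one test.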
E: 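Cell assay of Leishmania donovani living inside macrophages; the read-out is not stated. Tested at 30 µM. Direction is inferred from retests: higher values go with stronger inhibition. About 69,000 compounds were tested under these conditions; 1.5% (about 1,000) showed 50% or more at least once.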
F: 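Polyketide synthase Pks13, Mycobacterium tuberculosis (UniProt I6X8D2). Enzyme assay of the thioesterase domain of polyketide synthase 13; the read-out is not stated. Compounds at 30 µM. Higher reads as stronger inhibition (inferred from which compounds were picked for retests). Of about 67,000 compounds tested this way, about 300 (0.46%) reached 50% or more in at least one test.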

SMILES: CCC[C@@H]1CN(c2cncc(C(=O)N3CCOCC3)n2)C[C@H]1N(C)C
A: -92.07%
B: 2.679%
C: 3.931%
D: -0.8805%
E: 5.453%
F: 14.5%

SMILES: c1cncc(OC2CCN(CCn3cc4ccccc4n3)CC2)c1
A: -6.949%
B: 3.483%
C: -0.7211%
D: -5.646%
E: -44.01%
F: -9.032%

SMILES: COc1ccc(C)cc1CN1CCOC(Cn2nc(C)nc2C)C1 (stereo not given)
A: -11.87%
B: 8.671%
C: 1.296%
D: 0.6519%
E: 21.49%
F: -9.374%

SMILES: CC(C)c1noc(OCc2cccc(S(=O)(=O)N(C)C)c2)n1
A: 3.213%
B: 4.094%
C: 1.649%
D: 2.02%
E: 18.49%
F: -27.39%

SMILES: O=C(CC1CC1)N1CCCn2c(nnc2Cn2cccc2)C1
A: 0.1722%
B: 6.329%
C: 11.5%
E: 28.85%
F: -27.44%

SMILES: Cc1occc1C(=O)N1CCC2(CC1)CN(c1ccccn1)CCO2
A: -5.665%
B: 5.882%
C: 0.9968%
D: 4.665%
F: -7.46%

SMILES: CCN(CCn1cccn1)C(=O)CN1C(=O)OC[C@@H]1C(C)C
A: -20.99%
B: 3.784%
C: 2.315%
D: 0.8547%
E: -18.87%
F: -2.631%

SMILES: CC(C)CN(C)S(=O)(=O)c1ccc(Cl)cc1C#N
A: 5.203%
B: 3.012%
C: -0.5111%
D: -1.829%
E: -35.3%
F: 4.813%

SMILES: CC(=O)NCc1nn(C)c2c1CN(Cc1ccsc1)C2
A: 3.375%
B: 1.935%
C: -0.3779%
D: 0.2415%
F: -12.2%

SMILES: O=C(NC(c1ccccc1)c1cccnc1)C1CC1 (stereo not given)
A: -21.87%
B: 1.98%
C: -8.296%
D: -1.816%
E: 28.7%
F: -17.95%

SMILES: OCCN(Cc1ccccc1)Cc1ccsc1
A: -0.1249%
B: 0%
C: 4.206%
D: -0.2296%
E: -7.981%
F: -3.586%

SMILES: Cc1ccc(NC(=O)Cn2cc(I)cn2)cc1C
A: -12.07%
B: -1.22%
C: -2.397%
D: 3.291%
E: 12.78% and 16.82%
F: -7.194%

SMILES: Cl.O=C(CCn1c(C(F)(F)F)cc2cccnc21)N1CCOCC1
E: 6.98% and 0.02144%

SMILES: COc1ccc(Cl)cc1NCCC(=O)NCCNc1cnccn1
A: -2.156%
B: -13.95%
C: 2.976%
D: 3.728%
E: 27.71%
F: 12.96%

SMILES: CC(C)N(C)Cc1cnc2n1CCN(C(=O)Cc1cccs1)C2C (stereo not given)
A: 9.983%
B: 0%
C: 4.857%
D: 4.303%
F: -32.03%

SMILES: Cn1ccnc1CC1CCCN(C(=O)NCCOc2cccnc2)C1 (stereo not given)
A: -18.36%
B: 2.242%
C: 3.734%
D: 2.03%
E: 17.38%
F: -14.1%

SMILES: COC(=O)Cn1c(=O)nc2n1C(=O)N(c1ccc(F)cc1)C2
A: 2.905%
B: 0%
C: 5.871%
D: -0.7663%
E: -4.305%
F: -40.4%

SMILES: COCCn1cc(C(=O)Nc2nc3c(s2)CCC3)c2ccccc21
A: -0.06126%
B: 21.78%
C: 8.4%
D: -0.8505%
E: 23.53%

SMILES: N#Cc1ccc(C(=O)N2CCCSCC2CN2CCCC2)cc1 (stereo not given)
A: -13.6%
B: 4%
C: 4.705%
D: -1.186%
E: 3.434%
F: -13.95%

SMILES: Cc1cc(C)n(CC2CCCN2C(=O)c2ccc3[nH]c(=O)[nH]c3c2)n1 (stereo not given)
A: 0.4268%
B: 9.756%
C: 5.26%
D: 4.43%
E: -55.52%

SMILES: Cc1cnc2c(S(=O)(=O)N(C)C3CCS(=O)(=O)C3)cccc2c1 (stereo not given)
A: -0.4991%
B: 8.092%
C: -0.1058%
D: 2.216%
E: -0.3863%
F: -9.238%

SMILES: CS(=O)(=O)CCN1CCN(c2ccc(Cl)cn2)CC1
A: 2.417%
B: -3.922%
C: 7.433%
D: 4.065%
E: 0.04205%
F: 19.72%

SMILES: CN1C(=O)CC(c2cnn(C)c2)C12CCN(C(=O)c1cscn1)CC2 (stereo not given)
A: -3.774%
B: 10.92%
C: 2.216%
D: -3.043%
E: 4.903%
F: -2.028%

SMILES: CC(=O)NCCCSCCOc1cccc(C#N)c1
A: -17.56%
B: -6.173%
C: 0.7751%
D: -0.7371%
E: 8.735%
F: -6.165%

SMILES: CN1CCCC(N(C)S(=O)(=O)c2cccc3ncccc23)C1 (stereo not given)
A: 24.36%
B: 13.86%
C: 0.7322%
D: -2.169%
E: 59.16%
F: -8.074%

SMILES: Cc1cccnc1NC(=O)CSc1ccc2c(c1)OCCO2
A: 0.9411%
B: 4.878%
C: 0.4339%
D: -0.8439%
E: 11.48%
F: -11.3%

Once more, the final 3:

SMILES,A,B,C,D,E,F
CC(=O)NCCCSCCOc1cccc(C#N)c1,-17.56%,-6.173%,0.7751%,-0.7371%,8.735%,-6.165%
CN1CCCC(N(C)S(=O)(=O)c2cccc3ncccc23)C1 (stereo not given),24.36%,13.86%,0.7322%,-2.169%,59.16%,-8.074%
Cc1cccnc1NC(=O)CSc1ccc2c(c1)OCCO2,0.9411%,4.878%,0.4339%,-0.8439%,11.48%,-11.3%